This is an account of results in publication doi:10.1101/2021.01.15.426901.

The chains behind the UniProt entries cited, without tags or fusion partners.
UniProt O09106: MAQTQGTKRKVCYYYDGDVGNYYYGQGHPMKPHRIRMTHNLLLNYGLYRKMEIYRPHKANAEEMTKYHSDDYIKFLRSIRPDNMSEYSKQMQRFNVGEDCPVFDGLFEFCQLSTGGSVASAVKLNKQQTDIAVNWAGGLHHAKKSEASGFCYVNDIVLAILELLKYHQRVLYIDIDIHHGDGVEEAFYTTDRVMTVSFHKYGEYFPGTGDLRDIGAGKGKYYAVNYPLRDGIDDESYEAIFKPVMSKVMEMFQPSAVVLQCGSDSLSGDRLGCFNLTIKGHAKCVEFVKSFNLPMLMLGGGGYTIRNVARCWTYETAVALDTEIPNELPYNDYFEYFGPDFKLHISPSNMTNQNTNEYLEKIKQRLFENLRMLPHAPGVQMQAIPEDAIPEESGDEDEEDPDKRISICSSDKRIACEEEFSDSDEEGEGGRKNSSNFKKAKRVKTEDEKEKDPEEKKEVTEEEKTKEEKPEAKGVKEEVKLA
UniProt P70288: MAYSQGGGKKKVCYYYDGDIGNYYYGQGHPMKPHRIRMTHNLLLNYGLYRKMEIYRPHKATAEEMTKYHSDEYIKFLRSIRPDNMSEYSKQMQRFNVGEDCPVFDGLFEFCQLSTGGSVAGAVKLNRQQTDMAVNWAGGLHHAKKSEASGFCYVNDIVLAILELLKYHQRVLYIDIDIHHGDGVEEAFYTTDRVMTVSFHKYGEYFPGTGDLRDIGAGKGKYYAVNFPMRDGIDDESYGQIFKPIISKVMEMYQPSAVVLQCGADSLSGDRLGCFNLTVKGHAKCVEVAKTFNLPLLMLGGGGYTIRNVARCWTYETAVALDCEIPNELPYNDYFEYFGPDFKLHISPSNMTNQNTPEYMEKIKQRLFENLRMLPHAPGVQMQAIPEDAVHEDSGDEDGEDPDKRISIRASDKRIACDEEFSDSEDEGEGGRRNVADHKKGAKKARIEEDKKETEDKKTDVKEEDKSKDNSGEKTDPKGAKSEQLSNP

First the molecules themselves.
T1: ZFP541 (mouse (endogenous in testis)) (UniProt Q0GGX2)
T1 sequence: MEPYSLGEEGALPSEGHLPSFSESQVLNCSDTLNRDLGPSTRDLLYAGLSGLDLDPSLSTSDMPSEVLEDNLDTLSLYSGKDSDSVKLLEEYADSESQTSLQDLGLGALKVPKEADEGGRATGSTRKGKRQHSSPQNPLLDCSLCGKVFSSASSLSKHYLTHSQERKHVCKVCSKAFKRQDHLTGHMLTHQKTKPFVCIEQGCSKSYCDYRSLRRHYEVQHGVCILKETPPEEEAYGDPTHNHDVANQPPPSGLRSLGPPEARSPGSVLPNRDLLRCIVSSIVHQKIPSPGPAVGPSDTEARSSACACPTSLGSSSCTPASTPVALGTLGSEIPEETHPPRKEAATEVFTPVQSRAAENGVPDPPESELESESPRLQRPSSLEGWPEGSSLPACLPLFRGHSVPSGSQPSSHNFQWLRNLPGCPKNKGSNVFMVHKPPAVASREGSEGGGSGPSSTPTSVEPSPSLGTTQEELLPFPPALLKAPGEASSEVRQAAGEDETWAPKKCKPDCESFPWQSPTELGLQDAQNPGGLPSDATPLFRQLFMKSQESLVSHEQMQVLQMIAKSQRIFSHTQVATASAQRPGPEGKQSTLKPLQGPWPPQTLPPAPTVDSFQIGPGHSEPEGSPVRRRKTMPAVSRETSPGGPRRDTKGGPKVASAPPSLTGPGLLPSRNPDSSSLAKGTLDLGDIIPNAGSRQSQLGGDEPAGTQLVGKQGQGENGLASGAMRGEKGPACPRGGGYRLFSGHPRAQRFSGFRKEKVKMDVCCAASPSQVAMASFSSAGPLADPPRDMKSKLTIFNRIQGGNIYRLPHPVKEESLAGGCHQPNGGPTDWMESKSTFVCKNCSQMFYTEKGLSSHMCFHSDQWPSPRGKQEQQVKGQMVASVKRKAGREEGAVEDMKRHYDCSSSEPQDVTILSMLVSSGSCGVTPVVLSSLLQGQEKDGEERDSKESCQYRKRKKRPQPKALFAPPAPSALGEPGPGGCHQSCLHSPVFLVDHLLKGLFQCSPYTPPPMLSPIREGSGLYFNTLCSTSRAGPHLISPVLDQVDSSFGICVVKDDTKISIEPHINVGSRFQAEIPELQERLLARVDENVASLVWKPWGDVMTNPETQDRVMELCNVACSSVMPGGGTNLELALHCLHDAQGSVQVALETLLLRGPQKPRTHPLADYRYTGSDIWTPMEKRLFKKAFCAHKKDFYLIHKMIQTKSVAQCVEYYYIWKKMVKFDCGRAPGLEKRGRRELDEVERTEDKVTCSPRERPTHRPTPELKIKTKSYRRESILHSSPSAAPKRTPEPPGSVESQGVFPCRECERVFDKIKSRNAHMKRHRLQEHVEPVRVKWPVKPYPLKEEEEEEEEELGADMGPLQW

B1: terminal deoxynucleotidyltransferase interacting factor 1 (TDIF1) (protein, UniProt Q99LB0 1-328)
chain: MGATGDTEQPRGPGGAERGGLELGDAGAAGQPVLTNPWNIMIKHRQVQRRGRRSQMTTSFTDPAISMDLLRAVLQPSINEEIQGVFNKYMKFFQKAALNVRDNVGEEVDAEQLIQEACRSCLEQAKLLFSDGEKVIPRLAHELPGIKRGRQAEEESHRGSPIPKKRKGRPPGHVLSNDRAAAGMVWKQKSCEPIRREGPKWDPARLNESTTFVLGSRANKALGMGGTRGRIYIKHPHLFKYAADPQDKHWLAEQHHMRATGGKMAYLLIEEDIRDLAASDDYRGCLDLKLEELKSFVLPSWMVEKMRKYMETLRTENEHRAAEAPPQT

These are yes or no findings as the source states them, for the method shown. In cells and extracts the contact can be indirect. Some entries that bind do so weakly or less than the wild type.

For the assay, the target named is T1, ZFP541 (mouse (endogenous in testis)). The assay is described as follows: co-IP.
As for “HDAC1 (from UniProt O09106 1-482) (enzyme)”, the binding entry is listed as “binds”.

In the case of “HDAC2 (from UniProt P70288 1-488) (enzyme)”, the binding result was “binds”.

With B1, the binding result was “binds”.
